# Measured values taken from the supplement of paper PMC7752906.
# Where a name gives a salt, the structure may show the parent alone. Some of the results follow. Single values are uncertain here, since repeats match poorly.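 Wells held roughly 40 S. mansoni schistosomula, imaged in bright field over time against wells given 0.1% DMSO. The paper defines hits as drugs with a Mahalanobis distance of at least 2.47, three standard deviations above the DMSO control mean. Degeneracy is the proportion of worms classified as opaque.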
# Test system: Schistosoma mansoni schistosomula
# Experiment: degeneracy (percent of somules classified as degenerate/opaque); higher = more parasite degeneration/death; extreme values may be limits of the assay
# Settings: 10 µM; 72 h
row,Compound,degeneracy [%]
1,Cc1ncc([N+](=O)[O-])n1CC(C)O (stereo unspecified) [Secnidazole],7.69
2,CCC(NC(C)C)C(O)c1ccc(O)c2[nH]c(=O)ccc12 (stereo unspecified) [Procaterol Hcl Hemihydrate],7.69
3,CC1(C)S[C@@H]2[C@H](NC(=O)[C@H](N)c3ccccc3)C(=O)N2[C@H]1C(=O)O [Ampicillin Sodium],8.11
4,O=c1n(CCCN2CCN(c3cccc(Cl)c3)CC2)nc2ccccn12 [Trazodone],4.08
5,CC(=O)NCCCCCC(=O)O [Acexamic Acid],5.13
6,O=C(O)c1cc(=O)[nH]c(=O)[nH]1 [Orotic Acid],4
7,Cc1nc2ccccn2c(=O)c1CCN1CCC(C(=O)c2ccc(F)cc2)CC1 [Pirenperone],8.33
8,O=C(CCNNC(=O)c1ccncc1)NCc1ccccc1 [Nialamide],7.69
9,CCCCC[C@H](O)/C=C/[C@H]1[C@H](O)CC(=O)[C@@H]1C/C=C\CCCC(=O)O [Dinoprostone],6.25
10,NC(=O)c1cnccn1 [Pyrazinamide],0
11,"CC(=O)O[C@H]1C(=O)[C@@]2(C)[C@H]([C@H](OC(=O)c3ccccc3)[C@]3(O)C[C@H](OC(=O)[C@H](O)[C@@H](NC(=O)c4ccccc4)c4ccccc4)C(C)=C1C3(C)C)[C@]1(OC(C)=O)CO[C@@H]1C[C@@H]2O [Taxol, Paclitaxel]",21.7
12,CCCN(CCC)CCc1cccc2c1CC(=O)N2 [Ropinirole Hydrochloride],9.68
13,C/C=C/c1ccc(OC)cc1 [Anethole],8.89
14,CC(=O)N(c1onc(C)c1C)S(=O)(=O)c1ccc(N)cc1 [Sulfisoxazole Acetyl],5.13
15,C[C@@H](O[C@H]1OCCN(Cc2n[nH]c(=O)[nH]2)[C@H]1c1ccc(F)cc1)c1cc(C(F)(F)F)cc(C(F)(F)F)c1 [Aprepitant],100
16,CC(N)CCCC(C)(C)O (stereo unspecified) [Heptaminol Hydrochloride],6.67
17,CC(C)OC(=O)C(C)(C)Oc1ccc(C(=O)c2ccc(Cl)cc2)cc1 [Fenofibrate],55.6
18,CCOC(=S)SSC(=S)OCC [Dixanthogen],0
19,Cc1cc2c(s1)Nc1ccccc1N=C2N1CCN(C)CC1 [Olanzapine],8.33
20,O=C(O)c1ccccc1O [Salicylic Acid],12.5
21,CCOc1ccc2nc(S(N)(=O)=O)sc2c1 [Ethoxzolamide],0
22,O=C(O)c1cc(/N=N/c2ccc(S(=O)(=O)Nc3ccccn3)cc2)ccc1O [Sulfasalazine],12.5
23,CO[C@H]1/C=C/O[C@@]2(C)Oc3c(C)c(O)c4c(O)c(c(/C=N/N5CCN(C)CC5)c(O)c4c3C2=O)NC(=O)/C(C)=C\C=C\[C@H](C)[C@H](O)[C@@H](C)[C@@H](O)[C@@H](C)[C@H](OC(C)=O)[C@@H]1C [Rifampin],22.2
24,Cc1c(Cl)cccc1Nc1ccccc1C(=O)O [Tolfenamic Acid],100
25,Cc1ccc(N(CC2=NCCN2)c2cccc(O)c2)cc1 [Phentolamine],7.14
26,O=C1c2c(O)cc(CO)cc2C(OC2OC(CO)C(O)C(O)C2O)c2cccc(OC3OC(CO)C(O)C(O)C3O)c21 (stereo unspecified) [Casanthranol [cascaroside A Shown]],7.5

# Reformatted bar-delimited: entries from further up.
row | Compound | degeneracy [%]
12 | CCCN(CCC)CCc1cccc2c1CC(=O)N2 [Ropinirole Hydrochloride] | 9.68
19 | Cc1cc2c(s1)Nc1ccccc1N=C2N1CCN(C)CC1 [Olanzapine] | 8.33
20 | O=C(O)c1ccccc1O [Salicylic Acid] | 12.5

# The results go on.

row,Compound,degeneracy [%]
1,O=C(O)c1ccccc1-c1c2cc(I)c(=O)c(I)c-2oc2c(I)c(O)c(I)cc12 [Erythrosine Sodium],9.09
2,CCc1ccc(CCOc2ccc(CC3SC(=O)NC3=O)cc2)nc1 (stereo unspecified) [Pioglitazone],0
3,OCCN1CCN(CCCN2c3ccccc3Sc3ccc(C(F)(F)F)cc32)CC1 [fluphenazine],100
4,CC(C)(Oc1ccc(CCNC(=O)c2ccc(Cl)cc2)cc1)C(=O)O [Bezafibrate],6.67
5,Clc1ccc2c(c1)C(N1CCNCC1)=Nc1ccccc1O2 [Amoxapine],100
6,CC[C@H]1OC(=O)[C@H](C)[C@@H](O[C@H]2C[C@@](C)(OC)[C@@H](O)[C@H](C)O2)[C@H](C)[C@@H](O[C@@H]2O[C@H](C)C[C@H](N(C)C)[C@H]2O)[C@](C)(O)C[C@@H](C)C(=O)[C@H](C)[C@@H](O)[C@]1(C)O [Erythromycin],0
7,CC(C(=O)O)c1ccc(CC2CCCC2=O)cc1 (stereo unspecified) [Loxoprofen],2.7
8,CC1=C(/C=C/C(C)=C/C=C/C(C)=C/C=C/C=C(C)/C=C/C=C(C)/C=C/C2=C(C)CCCC2(C)C)C(C)(C)CCC1 [Beta-carotene],0
9,NC(=O)c1ccccc1O [Salicylamide],4
10,CCOC(=O)N1CCC(=C2c3ccc(Cl)cc3CCc3cccnc32)CC1 [Loratadine],16.7
11,Oc1c(Br)cc(Br)c2cccnc12 [Broxyquinoline],100
12,COc1ccc(CC(C)NCC(O)c2ccc(O)c(NC=O)c2)cc1 (stereo unspecified) [Formoterol],100
13,CC(C)C[C@H](NC(=O)[C@H](Cc1ccccc1)NC(=O)c1cnccn1)B(O)O [Bortezomib],100
14,CN(C)[C@@H]1C(O)=C(C(N)=O)C(=O)[C@@]2(O)C(O)=C3C(=O)c4c(O)cccc4[C@@](C)(O)[C@H]3C[C@@H]12 [Tetracycline],6.25
15,COC(=O)[C@H](c1ccccc1Cl)N1CCc2sccc2C1 [Clopidogrel],11.9
16,C[C@]12CCC(=O)C=C1CC[C@@H]1[C@@H]2C(=O)C[C@@]2(C)[C@H]1CC[C@]2(O)C(=O)CO [Cortisone],5.26
17,CC(=O)[C@@]12O[C@](C)(c3ccccc3)O[C@@H]1C[C@H]1[C@@H]3CCC4=CC(=O)CC[C@]4(C)[C@H]3CC[C@@]12C [Algestone Acetophenide],100
18,Nc1ccc(S(=O)(=O)NC(=O)c2ccccc2)cc1 [Sulfabenzamide],0
19,C[N+](C)(C)CCOP(=O)(O)OP(=O)([O-])OC[C@H]1O[C@@H](n2ccc(N)nc2=O)[C@H](O)[C@@H]1O [Citicoline],2.86
20,Cc1cccc(C)c1NC(=O)c1ccccc1C(=O)O [Ftaxilide],5.26
21,CS(=O)(=O)c1ccc([C@@H](O)[C@@H](CF)NC(=O)C(Cl)Cl)cc1 [Florfenicol],0
22,c1ccc2c(c1)CCCC2C1=NCCN1 (stereo unspecified) [Tetrahydrozoline],3.12
23,CCCCN1C[C@H](O)[C@@H](O)[C@H](O)[C@H]1CO [Miglustat],5.56
24,C[C@@H](O)[C@H]1C(=O)N2C(C(=O)O)=C(SCCNC=N)C[C@H]12 [Imipenem],0
25,CCCCCN(C)CCC(O)(P(=O)(O)O)P(=O)(O)O [Ibandronate Sodium],0
26,C[Se]CC[C@H](N)C(=O)O [Selenomethionine],4.65

row,Compound,degeneracy [%]
1,OC[C@@H](O)[C@@H](O)[C@H](O)[C@H](O)CO [Mannitol],31.6
2,CCn1cc(C(=O)O)c(=O)c2cc(F)c(N3CCNCC3)nc21 [Enoxacin],3.57
3,Oc1ccc(C2CNCCc3c2cc(O)c(O)c3Cl)cc1 (stereo unspecified) [Fenoldopam Mesylate],0
4,CC(C(=O)O)c1cccc(Oc2ccccc2)c1 (stereo unspecified) [Fenoprofen],0
5,CCCc1ncc(C[n+]2ccccc2C)c(N)n1 [Amprolium],7.14
6,CCCOc1cc(N)ccc1C(=O)OCCN(CC)CC [Propoxycaine Hydrochloride],8.57
7,OC(Cn1cncn1)(Cn1cncn1)c1ccc(F)cc1F [Fluconazole],4.55
8,CC[N+](C)(C)c1cccc(O)c1 [Edrophonium Chloride],5
9,Nc1[nH]cnc2ncnc1-2 [Adenine],2.5
10,CCCCCCCCCCCCCCCC(=O)OC/C=C(C)/C=C/C=C(C)/C=C/C1=C(C)CCCC1(C)C [Retinyl Palmitate],9.38
11,NS(=O)(=O)c1cc(C2(O)NC(=O)c3ccccc32)ccc1Cl (stereo unspecified) [Chlorthalidone],4
12,Cc1ncc(C[n+]2csc(CCO)c2C)c(N)n1 [Thiamine],5.13
13,CC(C)c1c(C(=O)Nc2ccccc2)c(-c2ccccc2)c(-c2ccc(F)cc2)n1CC[C@@H](O)C[C@@H](O)CC(=O)O [Atorvastatin Calcium],76.9
14,O=C(O)CN1C(=O)c2cccc3cccc(c23)C1=O [Alrestatin],25
15,CCCCN(CCCC)CCCOC(=O)c1ccc(N)cc1 [Butacaine],0
16,Cc1ccc(C(=O)c2ccc(CC(=O)O)n2C)cc1 [Tolmetin Sodium],10.7
17,CC(=O)OCC(=O)[C@@]1(O)CC[C@H]2[C@@H]3CCC4=CC(=O)C=C[C@]4(C)[C@@]3(Cl)[C@@H](Cl)C[C@@]21C [Dichlorisone Acetate],3.57
18,O=C(O)CCCCCCCC(=O)O [Azelaic Acid],5.26
19,C=C1CC[C@H](O)C/C1=C/C=C1\CCC[C@]2(C)[C@@H]([C@H](C)CCCC(C)C)CC[C@@H]12 [Cholecalciferol],13.3
20,Cc1nccnc1N1CCCCC1 [Modaline Sulfate],10.7
21,CC(=O)S[C@@H]1CC2=CC(=O)CC[C@]2(C)[C@H]2CC[C@@]3(C)[C@@H](CC[C@@]34CCC(=O)O4)[C@H]12 [Spironolactone],14.3
22,CC(Cc1cccc(C(F)(F)F)c1)NCCOC(=O)c1ccccc1 (stereo unspecified) [Benfluorex Hydrochloride],100
23,CN1CCC(=C2c3ccccc3C=Cc3ccccc32)CC1 [Cyproheptadine],28.6
24,CO[C@H]1/C=C/O[C@@]2(C)Oc3c(C)c(O)c4c(O)c(c(/C=N/N5CCN(C6CCCC6)CC5)c(O)c4c3C2=O)NC(=O)/C(C)=C\C=C\[C@H](C)[C@H](O)[C@@H](C)[C@@H](O)[C@@H](C)[C@H](OC(C)=O)[C@@H]1C [Rifapentine],10.3
